Measurements reported in PubChem BioAssay AID686943 (Drosophila RNAi Screening Center, 2013).
The screen tested about 23,000 reagents; shown is a random part of those that have a named target and a result. 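Extra replicates exist only for a retested subset of genes; insulin dose and duration not given; both raised and lowered dpERK matter.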 Not stated in the record: the amount of reagent, the time to read-out.

- Assay: 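Search across the genome for regulators of signalling from receptor tyrosine kinase to ERK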 (primary screen)
- Cell system: Drosophila S2R+ haemocyte-like cells expressing YFP-tagged ERK (Rolled)
- Reagent: long dsRNA against Drosophila genes
- Challenge: insulin stimulation versus unstimulated cells; dose and duration not given
- Detection: 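Per-plate z-scores of phospho-ERK immunostaining normalised to YFP-tagged ERK, measured with and without insulin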
- Scale: replicate 1, z-score of dpERK with insulin and replicate 2, z-score of dpERK with insulin: higher = more active ERK per ERK-YFP after insulin; replicate 1, z-score of dpERK under basal conditions: higher = more basal active ERK per ERK-YFP; replicate 1, z-score of ERK-YFP with insulin: higher = more YFP-tagged ERK signal

no.	gene knocked down	amplicon	replicate 1, z-score of dpERK with insulin	replicate 2, z-score of dpERK with insulin	replicate 1, z-score of dpERK under basal conditions	replicate 1, z-score of ERK-YFP with insulin
1	CG7299 (GeneID 34468)	DRSC03043	0.09	0.3	-1.61	3.12
2	Creld (GeneID 33166)	DRSC00308	-0.75	-0.14	0.94	1.2
3	CG15047 (GeneID 32845)	DRSC19623	1.12	0.48	0.08	-0.57
4	CG15047 (GeneID 32845)	DRSC21443	0.52	0.53	0.53	-1.84
5	nmd (GeneID 44021)	DRSC02856	0.71	-0.3	0.56	0.42
6	P5CDh1 (GeneID 40434)	DRSC11801	-0.18	-0.1	-0.51	0.03
7	CG4267 (GeneID 33405)	DRSC00102	-1.81	-3.97	-0.84	-0.55
8	CG4267 (GeneID 33405)	DRSC00647	0.34	0.54	-0.23	0.74
9	CG2926 (GeneID 40676)	DRSC12321	-1.57	-3.06	0.58	0.46
10	CG13319 (GeneID 36423)	DRSC06356	-0.22	-0.36	-0.09	0.63
11	Cipc (GeneID 43177)	DRSC14898	-0.45	0.24	-0.3	-0.01
12	Cipc (GeneID 43177)	DRSC14900	0.47	0	-0.47	-0.19
13	CG15831 (retired record) (GeneID 3355006)	DRSC20816	-0.68	-0.15	-0.73	0.58
14	Gr98b (GeneID 117327)	DRSC21675	0.55	-0.41	0.17	-0.57
15	CG11537 (GeneID 38373)	DRSC08200	0.09	-0.2	0.86	0.45
16	Pcif1 (GeneID 40295)	DRSC11655	0.92	-0.05	0.18	0.47
17	Slob (GeneID 34038)	DRSC02296	1.09	-0.1	-0.45	-1.64
18	Slob (GeneID 34038)	DRSC03436	-0.26	-0.17	-0.02	0.12
19	CG3515 (GeneID 33437)	DRSC00609	-0.82	-0.25	-0.35	0.21
20	CG12290 (GeneID 43182)	DRSC14497	-0.19	-0.21	-0.7	0.06
21	MED16 (GeneID 37535)	DRSC04506	-1.33	0.91	-0.02	1.62
22	CG4194 (GeneID 31173)	DRSC18520	0.27	-0.49	-0.46	-0.51
23	vnd (GeneID 31003)	DRSC17360	-0.97	0.53	1.99	1.28
24	vnd (GeneID 31003)	DRSC18849	2.21	0.53	1.05	-0.21
25	vnd (GeneID 31003)	DRSC22487	-1.42	-2.41	0.88	2.34

Individual results from above:
CG3515 (GeneID 33437) [DRSC00609], replicate 1, z-score of ERK-YFP with insulin: 0.21
Slob (GeneID 34038) [DRSC02296], replicate 2, z-score of dpERK with insulin: -0.1
Under “replicate 2, z-score of dpERK with insulin”, Cipc (GeneID 43177) [DRSC14898] has 0.24
